Results taken from patent US8859571B2, “Quinazoline compounds” (GlaxoSmithKline LLC, priority 2009, dated 2014).
Counter-ions that a name gives are not always drawn. Some of these results come from one statement about several compounds together.

Target: T1, Full length human TNNI3K (hTNNI3K) (Homo sapiens, UniProt Q59H18)
T1 construct: His-MBP-TEV-Full length human TNNI3K (hTNNI3K); His (N); MBP (N); TEV cleavage site (N); made in house; host or cells: baculovirus system (printed 'Baculokinase system')
T1 sequence (Q59H18 1-835): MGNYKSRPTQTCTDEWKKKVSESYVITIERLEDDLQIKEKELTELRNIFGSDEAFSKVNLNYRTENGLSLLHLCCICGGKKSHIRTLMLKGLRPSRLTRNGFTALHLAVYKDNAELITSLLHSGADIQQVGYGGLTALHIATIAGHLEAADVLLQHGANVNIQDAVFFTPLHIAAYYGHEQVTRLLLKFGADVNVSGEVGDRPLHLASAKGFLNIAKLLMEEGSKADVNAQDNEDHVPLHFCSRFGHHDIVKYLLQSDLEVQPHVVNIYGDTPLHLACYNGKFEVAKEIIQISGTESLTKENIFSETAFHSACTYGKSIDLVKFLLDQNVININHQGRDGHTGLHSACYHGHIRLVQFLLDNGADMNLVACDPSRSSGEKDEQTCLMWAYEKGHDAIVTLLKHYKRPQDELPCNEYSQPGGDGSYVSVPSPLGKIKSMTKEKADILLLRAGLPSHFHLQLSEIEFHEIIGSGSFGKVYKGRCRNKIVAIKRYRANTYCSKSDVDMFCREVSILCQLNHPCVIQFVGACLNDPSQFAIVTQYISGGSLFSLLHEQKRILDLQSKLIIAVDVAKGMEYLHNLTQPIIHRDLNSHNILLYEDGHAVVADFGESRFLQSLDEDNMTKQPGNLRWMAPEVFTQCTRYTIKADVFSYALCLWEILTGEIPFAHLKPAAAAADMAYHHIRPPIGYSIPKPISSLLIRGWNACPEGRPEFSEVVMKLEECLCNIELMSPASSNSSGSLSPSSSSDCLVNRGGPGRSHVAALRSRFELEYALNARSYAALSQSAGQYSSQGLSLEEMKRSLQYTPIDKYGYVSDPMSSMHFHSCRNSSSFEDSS
Test: Fluorescent polarization assay of compound inhibition on hTNNI3K ATP binding (Biological Assay Method I)
Settings: displacement of fluorescent ligand from hTNNI3K ATP binding pocket; mean of a minimum of 2 experiments
Text: Materials: His-MBP-TEV-Full length human TNNI3K (hTNNI3K) was expressed in Baculokinase system and purified from amylase affinity column followed by Superdex200. The fluorescent ligand 5-({[2-({[3-({4-[(5-hydroxy-2-methylphenyl)amino]-2-pyrimidinyl}amino)phenyl]carbonyl}amino)ethyl]amino}carbonyl)-2-(6-hydroxy-3-oxo-3H-xanthen-9-yl)benzoic acid was used. The preparation of this fluorescent ligand is disclosed in U.S. Provisional Patent Application No. 61/237,815 filed Aug. 28, 2009, the disclosure of which is incorporated by reference herein. The other buffer components, including MgCl2 (Catalog Number M1028), Bis-Tris (Catalog Number B7535), DTT (Catalog Number D9779) and Chaps (Catalog Number C3023) were purchased from Sigma-Aldrich.
Biological Assay Method I:
A fluorescent polarization assay was used to determine does response of compound inhibition on hTNNI3K ATP binding.
Solution 1: Ten (10) mL of a 5 nM 5-({[2-({[3-({4-[(5-hydroxy-2-methylphenyl)amino]-2-pyrimidinyl}amino)phenyl]carbonyl}amino)ethyl]amino}carbonyl)-2-(6-hydroxy-3-oxo-3H-xanthen-9-yl)benzoic acid solution (Solution 1) was prepared by mixing 5 μL of 1M DTT and 80 μL of 10% (w/v) Chaps and 5 μL of a 10 μM 5-({[2-({[3-({4-[(5-hydroxy-2-methylphenyl)amino]-2-pyrimidinyl}amino)phenyl]carbonyl}amino) ethyl]amino}carbonyl)-2-(6-hydroxy-3-oxo-3H-xanthen-9-yl)benzoic acid stock solution into 9910 μL buffer (20 mM Tris, 15 mM MgCl2, pH 7.5). (Stock solution: 10 μM solution of 5-({[2-({[3-({4-[(5-hydroxy-2-methylphenyl)amino]-2-pyrimidinyl}amino)phenyl]carbonyl}amino)ethyl]amino}carbonyl)-2-(6-hydroxy-3-oxo-3H-xanthen-9-yl)benzoic acid in 100% DMSO)
Solution 2 was formed by mixing 53.8 μL of 2.6 μM hTNNI3K with a 6946.2 μL aliquot of Solution 1 (the above 5-({[2-({[3-({4-[(5-hydroxy-2-methylphenyl)amino]-2-pyrimidinyl}amino)phenyl]carbonyl}amino)ethyl]amino}carbonyl)-2-(6-hydroxy-3-oxo-3H-xanthen-9-yl)benzoic acid solution) to make up a 7 mL of mixture of hTNNI3K and 5-({[2-({[3-({4-[(5-hydroxy-2-methylphenyl)amino]-2-pyrimidinyl}amino)phenyl]carbonyl}amino)ethyl]amino}carbonyl)-2-(6-hydroxy-3-oxo-3H-xanthen-9-yl)benzoic acid (Solution 2).
Fifty (50) nL of inhibitors in DMSO (or DMSO controls) were stamped into a 384-well low volume Greiner black plate, followed by addition of 5 μL of Solution 1 to column 18 and 5 μL Solution 2 to columns 1-17 and 19-24 of the plate. The plate was then spun at 500 rpm for 30 seconds and incubated at room temperature for 60 minutes. After that, the fluorescent polarization was measured on Analyst (ex/em: 485/530 nm, Dichroic: 505). For dose response experiments, normalized data were fit by ABASE/XC50 and pXC50=(log((b−y)/(y−a)))/d−log(x), where x is the compound concentration and y is the % activity at specified compound concentration, a is the minimum % activity, b is the maximum % activity, and d is the Hill slope.
The pXC50s are averaged to determine a mean value, for a minimum of 2 experiments.

Compound | pXC50
CNS(=O)(=O)c1ccc(OC)c(Nc2ncnc3cc(OC)c(OC)cc23)c1 [Example 6, 3-{[6,7-bis(methyloxy)-4-quinazolinyl]amino}-N-methyl-4-(methyloxy)benzenesulfonamide] | greater than or equal to 6.0
CNS(=O)(=O)c1ccc(SCC(F)(F)F)c(Nc2ncnc3cc(OC)c(OC)cc23)c1.Cl [Example 29, 3-{[6,7-bis(methyloxy)-4-quinazolinyl]amino}-N-methyl-4-[(2,2,2-trifluoroethyl)thio] benzenesulfonamide hydrochloride] | greater than or equal to 6.0
CNS(=O)(=O)c1ccc(OC(F)(F)F)c(Nc2ncnc3cc(OC)c(OC)cc23)c1 [Example 24, 3-{[6,7-bis(methyloxy)-4-quinazolinyl]amino}-N-methyl-4-[(trifluoromethyl)oxy] benzenesulfonamide trifluoroacetate] | greater than or equal to 6.0
CNS(=O)(=O)c1ccc(N2CCC(F)(F)CC2)c(Nc2ncnc3ccc(Cl)cc23)c1 [Example 15, 3-[(6-chloro-4-quinazolinyl)amino]-4-(4,4-difluoro-1-piperidinyl)-N-methylbenzenesulfonamide trifluoroacetate] | greater than or equal to 6.0
CNS(=O)(=O)c1cccc(Nc2ncnc3cc(OC)c(OC)cc23)c1.Cl [Example 2, 3-{[6,7-bis(methyloxy)-4-quinazolinyl]amino}-N-methylbenzenesulfonamide hydrochloride] | greater than or equal to 6.0
CNS(=O)(=O)c1ccc(N(C)C)c(Nc2ncnc3ccc(Cl)cc23)c1 [Example 9, 3-[(6-chloro-4-quinazolinyl)amino]-4-(dimethylamino)-N-methylbenzenesulfonamide] | greater than or equal to 6.0
CNS(=O)(=O)c1ccc(N(C)C)c(Nc2ncnc3cc4c(cc23)OCCO4)c1 [Example 13, 3-(7,8-dihydro[1,4]dioxino[2,3-g]quinazolin-4-ylamino)-4-(dimethylamino)-N-methylbenzenesulfonamide bis(trifluoroacetate)] | greater than or equal to 6.0
CNS(=O)(=O)c1ccc(OCC(F)(F)F)c(Nc2ncnc3ccc(Cl)cc23)c1 [Example 12, 3-[(6-chloro-4-quinazolinyl)amino]-N-methyl-4-[(2,2,2-trifluoroethyl)oxy] benzenesulfonamide] | greater than or equal to 6.0
CNS(=O)(=O)c1cc(Nc2ncnc3cc(OC)c(OC)cc23)ccc1F.Cl [Example 23, 5-{[6,7-bis(methyloxy)-4-quinazolinyl]amino}-2-fluoro-N-methylbenzenesulfonamide hydrochloride] | greater than or equal to 6.0
CNS(=O)(=O)c1cccc(Nc2ncnc3cc(OC)c(OC)c(Cl)c23)c1 [Example 33, 3-(5-chloro-6,7-dimethoxyquinazolin-4-ylamino)-N-methylbenzenesulfonamide trifluoroacetate] | greater than or equal to 6.0
CNS(=O)(=O)c1ccc(SC)c(Nc2ncnc3cc(OC)c(OC)cc23)c1 [Example 7, 3-{[6,7-bis(methyloxy)-4-quinazolinyl]amino}-N-methyl-4-(methylthio)benzenesulfonamide trifluoroacetate] | greater than or equal to 6.0

Now from value to compound:

pXC50 | Compound
greater than or equal to 6.0 | CNS(=O)(=O)c1ccc(N(C)C)c(Nc2ncnc3cc([N+](=O)[O-])ccc23)c1 [Example 72, 4-(dimethylamino)-N-methyI-3-((7-nitroquinazolin-4-yl)amino) benzenesulfonamide hydrochloride]
greater than or equal to 6.0 | CNS(=O)(=O)c1ccc(S(C)(=O)=O)c(Nc2ncnc3cc(OC)c(OC)c(OC)c23)c1 [Example 63, N-methyl-4-(methylsulfonyl)-3-{[5,6,7-tris(methyloxy)-4-quinazolinyl]amino}benzene sulfonamide trifluoroacetate]
greater than or equal to 6.0 | CNS(=O)(=O)c1ccc(OC)c(Nc2ncnc3cc(OC)c(OCCCN4CCOCC4)cc23)c1 [Example 34, 4-methoxy-3-(7-methoxy-6-(3-morpholinopropoxy)quinazolin-4-ylamino)-N-methylbenzenesulfonamide bis(trifluoroacetate)]
greater than or equal to 6.0 | CNS(=O)(=O)c1ccc(N(C)C)c(Nc2ncnc3cc(OC)c(OCCCN4CCOCC4)cc23)c1 [Example 43, 4-(dimethylamino)-3-(7-methoxy-6-(3-morpholinopropoxy)quinazolin-4-ylamino)-N-methylbenzenesulfonamide bis(formate)]
greater than or equal to 6.0 | CNS(=O)(=O)c1ccc(OCC(F)(F)F)c(Nc2ncnc3cc(OC(C)C)c(OC)cc23)c1 [Example 79, 3-(7-isopropoxy-6-methoxy-quinazolin-4-ylamino)-N-methyl-4-(2,2,2-trifluoro-ethoxy)-benzenesulfonamide]
greater than or equal to 6.0 | CNS(=O)(=O)c1cc(Nc2ncnc3cc(OC)c(OC)cc23)c(OCC(F)(F)F)cc1F.Cl [Example 52, 5-{[6,7-bis(methyloxy)-4-quinazolinyl]amino}-2-fluoro-N-methyl-4-[(2,2,2-trifluoroethyl)oxy] benzenesulfonamide hydrochloride]
greater than or equal to 6.0 | CNS(=O)(=O)c1cc(Nc2ncnc3cc(OC)c(OC)cc23)c(N(C)C)cc1F.Cl [Example 57, 5-{[6,7-bis(methyloxy)-4-quinazolinyl]amino}-4-(dimethylamino)-2-fluoro-N-methylbenzenesulfonamide hydrochloride]
greater than or equal to 6.0 | CNS(=O)(=O)c1cc(Nc2ncnc3cc(OC)c(OC)cc23)c(OC)cc1F.Cl [Example 41, 5-{[6,7-bis(methyloxy)-4-quinazolinyl]amino}-2-fluoro-N-methyl-4-(methyloxy) benzenesulfonamide hydrochloride]
greater than or equal to 6.0 | CNS(=O)(=O)c1ccc(OCC(F)(F)F)c(Nc2ncnc3cc(O)c(OC)cc23)c1 [Example 78, 3-(7-hydroxy-6-methoxyquinazolin-4-ylamino)-N-methyl-4-(2,2,2-trifluoroethoxy)benzenesulfonamide]
